{"sequences": {"note": "Chains of the proteins cited; added tags and fusions are not shown. Lines headed by an entry give the natural chain unless they say otherwise; changes in a name come on top.", "UniProt Q12800": "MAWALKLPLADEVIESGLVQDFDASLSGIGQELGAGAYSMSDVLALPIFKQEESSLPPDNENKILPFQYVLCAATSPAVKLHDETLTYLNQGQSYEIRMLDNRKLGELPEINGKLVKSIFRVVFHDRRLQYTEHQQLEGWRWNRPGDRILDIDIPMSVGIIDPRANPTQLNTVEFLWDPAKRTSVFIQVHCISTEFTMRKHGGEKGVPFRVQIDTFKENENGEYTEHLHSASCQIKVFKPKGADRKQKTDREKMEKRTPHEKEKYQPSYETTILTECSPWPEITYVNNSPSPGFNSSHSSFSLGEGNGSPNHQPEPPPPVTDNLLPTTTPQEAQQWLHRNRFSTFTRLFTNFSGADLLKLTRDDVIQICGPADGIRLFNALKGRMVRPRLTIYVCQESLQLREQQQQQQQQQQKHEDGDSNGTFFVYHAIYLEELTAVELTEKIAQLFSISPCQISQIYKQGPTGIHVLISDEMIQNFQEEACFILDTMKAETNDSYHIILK", "UniProt Q9UGI8": "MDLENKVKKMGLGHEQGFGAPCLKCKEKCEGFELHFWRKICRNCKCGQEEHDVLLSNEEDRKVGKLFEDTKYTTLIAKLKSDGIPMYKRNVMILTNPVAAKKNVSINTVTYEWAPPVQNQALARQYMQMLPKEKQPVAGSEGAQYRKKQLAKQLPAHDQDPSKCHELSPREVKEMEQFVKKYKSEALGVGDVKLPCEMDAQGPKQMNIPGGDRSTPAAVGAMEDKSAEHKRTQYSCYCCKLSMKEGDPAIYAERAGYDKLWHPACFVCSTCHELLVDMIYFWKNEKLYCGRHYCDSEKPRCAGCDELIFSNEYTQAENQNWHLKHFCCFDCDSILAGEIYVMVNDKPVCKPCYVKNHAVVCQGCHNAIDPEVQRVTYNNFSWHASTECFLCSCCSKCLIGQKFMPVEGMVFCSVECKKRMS", "UniProt P52888, whole entry, looked up": "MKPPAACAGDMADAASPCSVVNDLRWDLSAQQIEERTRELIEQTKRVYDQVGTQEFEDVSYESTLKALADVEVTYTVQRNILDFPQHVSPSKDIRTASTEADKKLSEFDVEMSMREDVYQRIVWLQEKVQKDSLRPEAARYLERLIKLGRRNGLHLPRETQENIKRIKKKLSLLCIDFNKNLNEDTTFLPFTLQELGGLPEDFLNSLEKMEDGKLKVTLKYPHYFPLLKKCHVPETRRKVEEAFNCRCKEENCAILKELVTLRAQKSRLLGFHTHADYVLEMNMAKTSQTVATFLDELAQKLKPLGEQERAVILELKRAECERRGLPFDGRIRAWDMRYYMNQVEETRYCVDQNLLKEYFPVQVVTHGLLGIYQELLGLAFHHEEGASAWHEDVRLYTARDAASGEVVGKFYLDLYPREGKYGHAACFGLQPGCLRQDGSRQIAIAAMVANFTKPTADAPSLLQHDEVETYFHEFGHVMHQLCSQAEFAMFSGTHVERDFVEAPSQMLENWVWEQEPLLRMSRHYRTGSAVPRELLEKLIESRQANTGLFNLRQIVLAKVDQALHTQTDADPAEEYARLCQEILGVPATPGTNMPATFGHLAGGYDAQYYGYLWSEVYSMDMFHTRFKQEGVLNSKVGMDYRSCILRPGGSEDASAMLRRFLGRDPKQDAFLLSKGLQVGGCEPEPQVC", "UniProt Q01085": "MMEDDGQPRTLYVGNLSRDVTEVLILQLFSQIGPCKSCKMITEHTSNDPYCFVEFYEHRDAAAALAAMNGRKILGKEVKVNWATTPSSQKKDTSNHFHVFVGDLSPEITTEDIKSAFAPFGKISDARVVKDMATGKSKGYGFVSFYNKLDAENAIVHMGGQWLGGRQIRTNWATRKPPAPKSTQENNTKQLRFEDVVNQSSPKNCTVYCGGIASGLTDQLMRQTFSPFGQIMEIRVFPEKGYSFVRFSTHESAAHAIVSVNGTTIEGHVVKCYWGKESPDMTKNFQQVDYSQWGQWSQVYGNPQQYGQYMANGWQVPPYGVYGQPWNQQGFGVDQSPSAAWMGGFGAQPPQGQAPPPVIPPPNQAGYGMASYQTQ", "UniProt Q8NHU6": "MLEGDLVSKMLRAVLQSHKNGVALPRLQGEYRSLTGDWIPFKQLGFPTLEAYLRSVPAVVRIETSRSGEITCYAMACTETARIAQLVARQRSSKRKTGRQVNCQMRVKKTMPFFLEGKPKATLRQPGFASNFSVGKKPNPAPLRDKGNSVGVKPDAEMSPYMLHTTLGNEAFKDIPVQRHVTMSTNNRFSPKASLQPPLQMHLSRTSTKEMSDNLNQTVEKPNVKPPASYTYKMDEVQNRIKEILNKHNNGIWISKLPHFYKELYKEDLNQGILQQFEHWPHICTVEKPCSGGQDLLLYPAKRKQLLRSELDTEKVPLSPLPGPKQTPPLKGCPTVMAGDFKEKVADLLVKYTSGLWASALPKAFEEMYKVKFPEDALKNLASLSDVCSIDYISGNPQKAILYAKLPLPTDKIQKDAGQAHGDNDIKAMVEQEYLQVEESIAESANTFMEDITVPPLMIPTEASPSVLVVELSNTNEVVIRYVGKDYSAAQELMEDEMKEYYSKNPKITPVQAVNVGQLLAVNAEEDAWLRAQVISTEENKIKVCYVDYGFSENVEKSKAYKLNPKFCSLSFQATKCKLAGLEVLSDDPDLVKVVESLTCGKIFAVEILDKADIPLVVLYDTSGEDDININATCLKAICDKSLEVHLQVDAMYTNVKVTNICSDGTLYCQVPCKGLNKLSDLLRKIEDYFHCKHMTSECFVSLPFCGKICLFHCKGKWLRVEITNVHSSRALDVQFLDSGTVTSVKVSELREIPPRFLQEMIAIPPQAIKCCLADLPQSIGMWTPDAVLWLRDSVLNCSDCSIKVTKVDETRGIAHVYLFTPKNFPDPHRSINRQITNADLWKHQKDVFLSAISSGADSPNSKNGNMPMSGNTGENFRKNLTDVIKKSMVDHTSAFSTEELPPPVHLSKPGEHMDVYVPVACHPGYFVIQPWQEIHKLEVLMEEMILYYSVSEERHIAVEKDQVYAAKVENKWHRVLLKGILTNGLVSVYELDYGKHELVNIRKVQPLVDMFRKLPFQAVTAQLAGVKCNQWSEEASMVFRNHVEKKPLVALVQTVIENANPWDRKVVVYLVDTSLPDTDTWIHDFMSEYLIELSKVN", "UniProt Q8WUH2": "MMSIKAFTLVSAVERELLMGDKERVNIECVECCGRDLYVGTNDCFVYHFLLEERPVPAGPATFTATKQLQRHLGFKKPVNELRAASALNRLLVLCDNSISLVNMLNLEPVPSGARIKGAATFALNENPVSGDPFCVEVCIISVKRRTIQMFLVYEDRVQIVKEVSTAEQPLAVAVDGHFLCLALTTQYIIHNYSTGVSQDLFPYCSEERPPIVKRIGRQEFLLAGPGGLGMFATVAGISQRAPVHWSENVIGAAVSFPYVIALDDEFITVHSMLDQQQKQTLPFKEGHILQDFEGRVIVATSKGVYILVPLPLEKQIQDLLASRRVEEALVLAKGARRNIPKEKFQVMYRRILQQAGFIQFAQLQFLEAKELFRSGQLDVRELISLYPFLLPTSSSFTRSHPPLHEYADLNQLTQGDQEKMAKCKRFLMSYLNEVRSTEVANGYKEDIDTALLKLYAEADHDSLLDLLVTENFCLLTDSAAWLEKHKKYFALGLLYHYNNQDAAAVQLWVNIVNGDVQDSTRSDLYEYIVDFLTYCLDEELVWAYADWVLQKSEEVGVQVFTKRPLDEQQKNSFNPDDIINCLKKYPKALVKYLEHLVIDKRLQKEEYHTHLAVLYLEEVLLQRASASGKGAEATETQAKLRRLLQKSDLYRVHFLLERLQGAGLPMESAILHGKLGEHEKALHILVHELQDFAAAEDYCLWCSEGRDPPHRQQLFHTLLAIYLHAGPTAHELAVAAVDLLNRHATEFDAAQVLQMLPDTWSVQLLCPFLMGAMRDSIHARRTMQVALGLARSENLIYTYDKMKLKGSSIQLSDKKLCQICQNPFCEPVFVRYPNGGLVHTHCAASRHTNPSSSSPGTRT", "UniProt P04183": "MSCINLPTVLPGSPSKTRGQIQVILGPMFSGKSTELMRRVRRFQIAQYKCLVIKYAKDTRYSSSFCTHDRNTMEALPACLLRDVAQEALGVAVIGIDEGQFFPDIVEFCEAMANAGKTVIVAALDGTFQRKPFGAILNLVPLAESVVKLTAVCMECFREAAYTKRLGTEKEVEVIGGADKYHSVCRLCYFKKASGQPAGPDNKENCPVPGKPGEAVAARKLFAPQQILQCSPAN", "UniProt P07996": "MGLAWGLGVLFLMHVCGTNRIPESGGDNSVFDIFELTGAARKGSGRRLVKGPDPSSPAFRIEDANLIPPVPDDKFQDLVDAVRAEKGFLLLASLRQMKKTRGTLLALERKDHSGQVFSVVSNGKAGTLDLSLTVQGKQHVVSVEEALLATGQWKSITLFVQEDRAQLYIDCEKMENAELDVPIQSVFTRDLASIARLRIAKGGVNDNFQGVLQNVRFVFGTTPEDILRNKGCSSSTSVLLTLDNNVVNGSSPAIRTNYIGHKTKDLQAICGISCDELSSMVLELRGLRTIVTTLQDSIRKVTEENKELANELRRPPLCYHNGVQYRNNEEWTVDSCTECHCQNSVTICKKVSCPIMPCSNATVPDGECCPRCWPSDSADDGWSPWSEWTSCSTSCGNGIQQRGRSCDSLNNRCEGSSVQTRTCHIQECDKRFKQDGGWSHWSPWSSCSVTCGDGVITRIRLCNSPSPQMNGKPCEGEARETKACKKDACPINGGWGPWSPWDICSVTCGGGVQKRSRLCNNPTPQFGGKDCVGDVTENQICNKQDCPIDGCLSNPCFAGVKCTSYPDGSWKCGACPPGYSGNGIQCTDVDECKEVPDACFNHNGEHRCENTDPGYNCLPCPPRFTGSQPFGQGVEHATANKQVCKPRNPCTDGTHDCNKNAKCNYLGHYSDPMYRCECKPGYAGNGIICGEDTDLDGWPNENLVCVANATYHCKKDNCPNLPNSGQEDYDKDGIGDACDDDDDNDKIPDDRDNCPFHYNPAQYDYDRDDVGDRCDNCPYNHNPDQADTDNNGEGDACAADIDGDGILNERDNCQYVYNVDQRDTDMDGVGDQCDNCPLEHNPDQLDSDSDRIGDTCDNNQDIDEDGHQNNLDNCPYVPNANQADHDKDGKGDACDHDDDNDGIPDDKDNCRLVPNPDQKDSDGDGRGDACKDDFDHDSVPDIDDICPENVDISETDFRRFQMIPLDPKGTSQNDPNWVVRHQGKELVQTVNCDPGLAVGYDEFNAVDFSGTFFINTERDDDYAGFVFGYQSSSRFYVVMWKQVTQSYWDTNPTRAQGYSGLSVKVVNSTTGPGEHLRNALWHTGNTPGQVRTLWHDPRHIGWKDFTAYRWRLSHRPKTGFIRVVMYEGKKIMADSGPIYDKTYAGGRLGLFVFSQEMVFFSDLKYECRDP", "UniProt P36897": "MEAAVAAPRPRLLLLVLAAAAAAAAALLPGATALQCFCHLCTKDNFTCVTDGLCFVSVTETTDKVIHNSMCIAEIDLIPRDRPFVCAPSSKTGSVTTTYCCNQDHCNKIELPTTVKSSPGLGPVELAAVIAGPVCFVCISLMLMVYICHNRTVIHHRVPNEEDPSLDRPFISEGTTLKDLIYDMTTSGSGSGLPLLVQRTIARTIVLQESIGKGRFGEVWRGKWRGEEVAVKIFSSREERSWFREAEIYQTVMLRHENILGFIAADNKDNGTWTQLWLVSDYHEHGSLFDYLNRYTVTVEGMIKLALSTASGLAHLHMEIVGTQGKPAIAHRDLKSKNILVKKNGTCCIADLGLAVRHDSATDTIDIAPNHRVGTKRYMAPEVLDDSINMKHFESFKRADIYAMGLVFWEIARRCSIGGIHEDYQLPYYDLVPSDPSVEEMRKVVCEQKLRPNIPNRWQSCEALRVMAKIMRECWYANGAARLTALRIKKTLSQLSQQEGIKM", "UniProt Q5TEJ8": "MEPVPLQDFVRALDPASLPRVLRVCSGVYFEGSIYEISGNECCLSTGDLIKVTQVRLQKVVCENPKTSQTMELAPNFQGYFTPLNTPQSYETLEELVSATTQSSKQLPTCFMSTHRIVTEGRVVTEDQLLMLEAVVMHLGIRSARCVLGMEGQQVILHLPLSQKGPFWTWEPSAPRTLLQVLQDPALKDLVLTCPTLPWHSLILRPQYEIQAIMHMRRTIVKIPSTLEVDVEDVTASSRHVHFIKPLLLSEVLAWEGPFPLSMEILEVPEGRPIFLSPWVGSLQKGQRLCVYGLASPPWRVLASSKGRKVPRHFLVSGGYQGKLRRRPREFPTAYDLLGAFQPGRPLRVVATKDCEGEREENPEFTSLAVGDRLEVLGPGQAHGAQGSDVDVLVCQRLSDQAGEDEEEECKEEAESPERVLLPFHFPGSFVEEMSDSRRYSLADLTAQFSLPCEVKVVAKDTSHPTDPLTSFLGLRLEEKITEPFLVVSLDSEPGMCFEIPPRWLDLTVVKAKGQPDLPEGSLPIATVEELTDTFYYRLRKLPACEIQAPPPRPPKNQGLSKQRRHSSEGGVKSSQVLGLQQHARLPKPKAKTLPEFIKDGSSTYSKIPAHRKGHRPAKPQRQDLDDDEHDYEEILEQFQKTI"}, "source": "the supplement of paper PMC12067093", "about": "“Discovery and optimisation of a covalent ligand for TRIM25 and its application to targeted protein ubiquitination” (Chemical Science, 2025)", "compound": "CC1Cc2ccccc2N1C(=O)C1CCCN(C1)C(=O)CCl (mixture of isomers) [TRIM25 ligand 11 (diastereomer mixture)]", "assay": "probe-labelled cysteine peptide fold change vs DMSO (competition) (log2 fold change); higher = less target engagement (more negative = stronger competition)", "settings": "THP-1, incubation time: 4 h", "note": "The other results are listed elsewhere or left out.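 Note: competitive chemoproteomic profiling in live THP-1 cells with an iodoacetamide desthiobiotin (IA-DTB) probe, comparing probe-labelled peptide intensities in compound-treated cells against DMSO-treated controls.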"}
{"target": "THUMPD1_Q9NXG2_31_RCDAGGPR (UniProt Q9NXG2)", "values": [{"measurement": "probe-labelled cysteine peptide fold change", "setting": "10 µM", "result": -0.5}, {"measurement": "probe-labelled cysteine peptide fold change", "setting": "50 µM", "result": 0.0804}]}
{"target": "TFCP2_Q12800_453_IAQLFSISPCQISQIYK (UniProt Q12800)", "values": [{"measurement": "probe-labelled cysteine peptide fold change", "setting": "10 µM", "result": 0.205}, {"measurement": "probe-labelled cysteine peptide fold change", "setting": "50 µM", "result": 0.0577}]}
{"target": "TES_Q9UGI8_22_MGLGHEQGFGAPCLK (UniProt Q9UGI8)", "values": [{"measurement": "probe-labelled cysteine peptide fold change", "setting": "50 µM", "result": -0.176}]}
{"target": "THTPA_Q9BU02_66_CPGAAGVLGPHTEYK (UniProt Q9BU02)", "values": [{"measurement": "probe-labelled cysteine peptide fold change", "setting": "10 µM", "result": -0.0203}, {"measurement": "probe-labelled cysteine peptide fold change", "setting": "50 µM", "result": -0.196}]}
{"target": "TERF2_Q15554_207_EAAVIICIK (UniProt Q15554)", "values": [{"measurement": "probe-labelled cysteine peptide fold change", "setting": "10 µM", "result": -0.0851}, {"measurement": "probe-labelled cysteine peptide fold change", "setting": "50 µM", "result": -0.0844}]}
{"target": "THOP1_P52888_246_RKVEEAFNCR (UniProt P52888)", "values": [{"measurement": "probe-labelled cysteine peptide fold change", "setting": "10 µM", "result": -0.0586}, {"measurement": "probe-labelled cysteine peptide fold change", "setting": "50 µM", "result": -0.205}]}
{"target": "TCIRG1_Q13488_25_SEEVALVQLFLPTAAAYTCVSR (UniProt Q13488)", "values": [{"measurement": "probe-labelled cysteine peptide fold change", "setting": "10 µM", "result": -0.0973}, {"measurement": "probe-labelled cysteine peptide fold change", "setting": "50 µM", "result": -0.276}]}
{"target": "TIAL1_Q01085_205+209_NCTVYCGGIASGLTDQLMR (UniProt Q01085)", "values": [{"measurement": "probe-labelled cysteine peptide fold change", "setting": "10 µM", "result": 0.161}]}
{"target": "TEPSIN_Q96N21_479_DSLFAGMELVACPR (UniProt Q96N21)", "values": [{"measurement": "probe-labelled cysteine peptide fold change", "setting": "10 µM", "result": 0.22}, {"measurement": "probe-labelled cysteine peptide fold change", "setting": "50 µM", "result": -0.145}]}
{"target": "TDRD7_Q8NHU6_600_VVESLTCGK (UniProt Q8NHU6)", "values": [{"measurement": "probe-labelled cysteine peptide fold change", "setting": "10 µM", "result": 0.0226}, {"measurement": "probe-labelled cysteine peptide fold change", "setting": "50 µM", "result": 0.127}]}
{"target": "TGFBRAP1_Q8WUH2_32_VNIECVECCGR (UniProt Q8WUH2)", "values": [{"measurement": "probe-labelled cysteine peptide fold change", "setting": "10 µM", "result": -0.0319}]}
{"target": "TK1_P04183_79_NTMEALPACLLR (UniProt P04183)", "values": [{"measurement": "probe-labelled cysteine peptide fold change", "setting": "10 µM", "result": -0.00122}, {"measurement": "probe-labelled cysteine peptide fold change", "setting": "50 µM", "result": 0.064}]}
{"target": "TCP1_P17987_218_SQMESMLISGYALNCVVGSQGMPK (UniProt P17987)", "values": [{"measurement": "probe-labelled cysteine peptide fold change", "setting": "10 µM", "result": -0.0532}, {"measurement": "probe-labelled cysteine peptide fold change", "setting": "50 µM", "result": 0.0594}]}
{"target": "THBS1_P07996_318_RPPLCYHNGVQYR (UniProt P07996)", "values": [{"measurement": "probe-labelled cysteine peptide fold change", "setting": "10 µM", "result": 0.286}, {"measurement": "probe-labelled cysteine peptide fold change", "setting": "50 µM", "result": 0.202}]}
{"target": "TGFBR1_P36897_101_TGSVTTTYCCNQDHCNK (UniProt P36897)", "values": [{"measurement": "probe-labelled cysteine peptide fold change", "setting": "10 µM", "result": -0.0331}, {"measurement": "probe-labelled cysteine peptide fold change", "setting": "50 µM", "result": 0.044}]}
{"target": "TGFBR1_P36897_347_NGTCCIADLGLAVR (UniProt P36897)", "values": [{"measurement": "probe-labelled cysteine peptide fold change", "setting": "10 µM", "result": -0.0428}, {"measurement": "probe-labelled cysteine peptide fold change", "setting": "50 µM", "result": -0.0869}]}
{"target": "TLN1_Q9Y490_1363_ECDNALRELETVR (UniProt Q9Y490)", "values": [{"measurement": "probe-labelled cysteine peptide fold change", "setting": "10 µM", "result": -0.419}, {"measurement": "probe-labelled cysteine peptide fold change", "setting": "50 µM", "result": -0.378}]}
{"target": "THEMIS2_Q5TEJ8_410_LSDQAGEDEEEECKEEAESPER (UniProt Q5TEJ8)", "values": [{"measurement": "probe-labelled cysteine peptide fold change", "setting": "10 µM", "result": 0.122}, {"measurement": "probe-labelled cysteine peptide fold change", "setting": "50 µM", "result": -0.0422}]}
{"target": "THEMIS2_Q5TEJ8_453_YSLADLTAQFSLPCEVK (UniProt Q5TEJ8)", "values": [{"measurement": "probe-labelled cysteine peptide fold change", "setting": "10 µM", "result": -0.0697}, {"measurement": "probe-labelled cysteine peptide fold change", "setting": "50 µM", "result": -0.154}]}
{"target": "TLDC1_Q6P9B6_292_GPCVAVLEDHDK (UniProt Q6P9B6)", "values": [{"measurement": "probe-labelled cysteine peptide fold change", "setting": "10 µM", "result": 0.127}, {"measurement": "probe-labelled cysteine peptide fold change", "setting": "50 µM", "result": 0.295}]}
{"target": "TK1_P04183_185_YHSVCR (UniProt P04183)", "values": [{"measurement": "probe-labelled cysteine peptide fold change", "setting": "10 µM", "result": -0.118}, {"measurement": "probe-labelled cysteine peptide fold change", "setting": "50 µM", "result": 0.164}]}
{"target": "TET3_O43151_1381_GKPWSPCK (UniProt O43151)", "values": [{"measurement": "probe-labelled cysteine peptide fold change", "setting": "10 µM", "result": -0.294}]}
{"target": "TECR_Q9NZ01_18_LCFLDK (UniProt Q9NZ01)", "values": [{"measurement": "probe-labelled cysteine peptide fold change", "setting": "10 µM", "result": 0.0168}, {"measurement": "probe-labelled cysteine peptide fold change", "setting": "50 µM", "result": -0.146}]}
{"target": "THOC2_Q8NI27_743_DALLDHDLALPLCLLMAQQR (UniProt Q8NI27)", "values": [{"measurement": "probe-labelled cysteine peptide fold change", "setting": "10 µM", "result": 0.0629}]}
{"target": "THOP1_P52888_350_YCVDQNLLK (UniProt P52888)", "values": [{"measurement": "probe-labelled cysteine peptide fold change", "setting": "10 µM", "result": 0.169}, {"measurement": "probe-labelled cysteine peptide fold change", "setting": "50 µM", "result": 0.0378}]}
{"target": "THSD7A_Q9UPZ6_1036_CNSHGYIEEACIIPCPSDCK (UniProt Q9UPZ6)", "values": [{"measurement": "probe-labelled cysteine peptide fold change", "setting": "10 µM", "result": 0.065}, {"measurement": "probe-labelled cysteine peptide fold change", "setting": "50 µM", "result": -0.111}]}
{"target": "TGFBRAP1_Q8WUH2_582_NSFNPDDIINCLK (UniProt Q8WUH2)", "values": [{"measurement": "probe-labelled cysteine peptide fold change", "setting": "10 µM", "result": 0.0163}, {"measurement": "probe-labelled cysteine peptide fold change", "setting": "50 µM", "result": 0.0519}]}
{"target": "TGFBR1_P36897_461_LRPNIPNRWQSCEALR (UniProt P36897)", "values": [{"measurement": "probe-labelled cysteine peptide fold change", "setting": "10 µM", "result": 0.0229}, {"measurement": "probe-labelled cysteine peptide fold change", "setting": "50 µM", "result": 0.109}]}
{"target": "TGFB1I1_O43294_231_GLCGSCNKPIAGQVVTALGR (UniProt O43294)", "values": [{"measurement": "probe-labelled cysteine peptide fold change", "setting": "10 µM", "result": 0.0114}, {"measurement": "probe-labelled cysteine peptide fold change", "setting": "50 µM", "result": -0.0818}]}
{"target": "TELO2_Q9Y4R8_30_EAIHALSSSEDGGHIFCTLESLK (UniProt Q9Y4R8)", "values": [{"measurement": "probe-labelled cysteine peptide fold change", "setting": "10 µM", "result": 0.156}, {"measurement": "probe-labelled cysteine peptide fold change", "setting": "50 µM", "result": -0.175}]}
{"target": "THEMIS2_Q5TEJ8_545_KLPACEIQAPPPRPPK (UniProt Q5TEJ8)", "values": [{"measurement": "probe-labelled cysteine peptide fold change", "setting": "10 µM", "result": -0.000191}, {"measurement": "probe-labelled cysteine peptide fold change", "setting": "50 µM", "result": -0.112}]}
{"target": "THBS1_P07996_754_IPDDRDNCPFHYNPAQYDYDRDDVGDR (UniProt P07996)", "values": [{"measurement": "probe-labelled cysteine peptide fold change", "setting": "10 µM", "result": 0.813}]}
{"target": "TFIP11_Q9UBB9_383_VLEMVEECERR (UniProt Q9UBB9)", "values": [{"measurement": "probe-labelled cysteine peptide fold change", "setting": "10 µM", "result": -0.151}, {"measurement": "probe-labelled cysteine peptide fold change", "setting": "50 µM", "result": -0.066}]}
{"target": "THG1L_Q9NWX6_51_DFEADDTCLAHCWVVVR (UniProt Q9NWX6)", "values": [{"measurement": "probe-labelled cysteine peptide fold change", "setting": "10 µM", "result": 0.17}, {"measurement": "probe-labelled cysteine peptide fold change", "setting": "50 µM", "result": 0.0848}]}
{"target": "TDRD7_Q8NHU6_699+706_HMTSECFVSLPFCGK (UniProt Q8NHU6)", "values": [{"measurement": "probe-labelled cysteine peptide fold change", "setting": "10 µM", "result": 0.27}, {"measurement": "probe-labelled cysteine peptide fold change", "setting": "50 µM", "result": 0.167}]}
{"target": "TEP1_Q99973_21_CLAMLPDLQPLEK (UniProt Q99973)", "values": [{"measurement": "probe-labelled cysteine peptide fold change", "setting": "10 µM", "result": 0.0705}, {"measurement": "probe-labelled cysteine peptide fold change", "setting": "50 µM", "result": -0.354}]}
{"target": "TDRD7_Q8NHU6_284_EDLNQGILQQFEHWPHICTVEK (UniProt Q8NHU6)", "values": [{"measurement": "probe-labelled cysteine peptide fold change", "setting": "10 µM", "result": 0.0148}]}
{"target": "THOP1_P52888_246_VEEAFNCR (UniProt P52888)", "values": [{"measurement": "probe-labelled cysteine peptide fold change", "setting": "10 µM", "result": 0.0401}, {"measurement": "probe-labelled cysteine peptide fold change", "setting": "50 µM", "result": -0.177}]}
{"target": "TDP1_Q9NUW8_413_WLCSEFK (UniProt Q9NUW8)", "values": [{"measurement": "probe-labelled cysteine peptide fold change", "setting": "10 µM", "result": -0.0257}, {"measurement": "probe-labelled cysteine peptide fold change", "setting": "50 µM", "result": -0.0582}]}
{"target": "THBS1_P07996_171_AQLYIDCEK (UniProt P07996)", "values": [{"measurement": "probe-labelled cysteine peptide fold change", "setting": "10 µM", "result": 0.482}, {"measurement": "probe-labelled cysteine peptide fold change", "setting": "50 µM", "result": 0.376}]}
